# Laboratory results as given in patent US20160130630A1, “METHOD FOR DETECTING CAMPYLOBACTER” (JNC CORPORATION, priority 2014, published 2016).
# At least one structure is not confirmed: it was looked up by name or label, or the drawing left a doubt.
# Tested on: Campylobacter bacteria
# Assay: growth inhibition of Campylobacter bacteria by cephamycin antibiotics
# Type: cell-based
structure (smiles),measurement,value
CO[C@@]1(NC(=O)C2SC(=C(C(N)=O)C(=O)O)S2)C(=O)N2C(C(=O)O)=C(CSc3nnnn3C)CS[C@@H]21 (stereo partly shown) [Cefotetan],inhibition of growth of Campylobacter bacteria,inhibits the growth
